Data on one sequence can be found in publication PMC9037752 (Frontiers in Nutrition, 2022).

Where a sequence shows no end group, the ends are not given.

This data set is described as follows: peptide made by a vendor. The conditions noted are these: whole synthesis, HPLC.

As to FPQYLQYPY, the “purity (crude or final not stated)” value amounted to 98%.
